No constants are given. Whether binding was seen depends on the method and setting. Some entries that bind do so weakly or less than the wild type. Each block holds one binder with its values, some of them ahead of it.
Key:
purified Integrin αvβ3 [1] = molecular target: T1, purified Integrin αvβ3 (UniProt P06756 31-992; P05106 27-718, limits assumed); assay: homologous competition: varied unlabeled ALOS-2 against 10 µM FITC-labeled ALOS-2 on wells coated with purified integrin αvβ3
T1 construct: Purified integrin coated on 96-well plates; also called integrin alpha-v-beta3; αVβ3 integrin

By UniProt entry, the sequences of proteins in these tests, tags left out. Where a name states a change or a piece, a line headed by the entry shows the natural chain unless it says otherwise.
UniProt P06756: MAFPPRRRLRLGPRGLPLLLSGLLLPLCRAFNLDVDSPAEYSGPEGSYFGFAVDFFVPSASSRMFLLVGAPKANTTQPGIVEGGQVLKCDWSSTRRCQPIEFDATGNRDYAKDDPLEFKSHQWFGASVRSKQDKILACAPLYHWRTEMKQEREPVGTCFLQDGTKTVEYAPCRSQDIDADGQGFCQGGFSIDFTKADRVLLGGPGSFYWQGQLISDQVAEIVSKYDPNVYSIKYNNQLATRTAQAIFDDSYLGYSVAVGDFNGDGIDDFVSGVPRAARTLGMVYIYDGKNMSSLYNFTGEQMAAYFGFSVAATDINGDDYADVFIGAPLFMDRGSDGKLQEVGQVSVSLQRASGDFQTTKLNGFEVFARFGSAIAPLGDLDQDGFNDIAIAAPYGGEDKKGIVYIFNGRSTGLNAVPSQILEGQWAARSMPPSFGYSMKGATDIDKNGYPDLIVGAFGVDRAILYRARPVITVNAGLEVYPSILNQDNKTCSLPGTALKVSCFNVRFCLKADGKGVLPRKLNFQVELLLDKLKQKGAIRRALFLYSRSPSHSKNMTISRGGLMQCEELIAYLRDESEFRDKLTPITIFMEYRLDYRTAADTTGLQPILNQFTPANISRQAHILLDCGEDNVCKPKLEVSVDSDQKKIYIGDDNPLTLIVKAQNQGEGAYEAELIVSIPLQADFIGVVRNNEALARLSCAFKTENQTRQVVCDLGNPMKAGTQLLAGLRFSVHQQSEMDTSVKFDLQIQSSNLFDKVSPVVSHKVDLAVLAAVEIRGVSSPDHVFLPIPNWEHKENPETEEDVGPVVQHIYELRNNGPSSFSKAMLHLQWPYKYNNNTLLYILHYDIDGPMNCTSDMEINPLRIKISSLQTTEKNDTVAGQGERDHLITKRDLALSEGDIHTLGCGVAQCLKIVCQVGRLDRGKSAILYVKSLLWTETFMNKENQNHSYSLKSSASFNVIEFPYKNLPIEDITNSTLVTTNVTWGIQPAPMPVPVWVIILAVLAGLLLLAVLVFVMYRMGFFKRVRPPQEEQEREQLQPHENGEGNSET

purified Integrin αvβ3 [2] = molecular target: T1, purified Integrin αvβ3; assay: homologous competition: varied unlabeled ALOS-1 against 10 µM FITC-labeled ALOS-1 on wells coated with purified integrin αvβ3
purified Integrin αvβ3 [3] = molecular target: T1, purified Integrin αvβ3; assay: homologous competition: varied unlabeled ALOS-3 against 10 µM FITC-labeled ALOS-3 on wells coated with purified integrin αvβ3

binding (purified Integrin αvβ3 [1]): binds
Binder: CPPSNHLLC [ALOS-2]

binding (purified Integrin αvβ3 [2]): binds
Binder: CNLSSSWIC [ALOS-1]

binding (purified Integrin αvβ3 [3]): binds
Binder: CAPSPSRLC [ALOS-3]

From patent US20190194253A1 (ARIEL UNIVERSITY RESEARCH AND DEVELOPMENT, published 2019)
